Data published in the supplement of paper PMC10849652.
The other results are listed elsewhere or left out.

Chains of the proteins cited; added tags and fusions are not shown. Lines headed by an entry give the natural chain unless they say otherwise; changes in a name come on top.
UniProt Q9Y5V0: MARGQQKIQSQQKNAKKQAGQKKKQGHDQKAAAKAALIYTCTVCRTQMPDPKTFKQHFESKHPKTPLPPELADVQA
UniProt Q96NC0: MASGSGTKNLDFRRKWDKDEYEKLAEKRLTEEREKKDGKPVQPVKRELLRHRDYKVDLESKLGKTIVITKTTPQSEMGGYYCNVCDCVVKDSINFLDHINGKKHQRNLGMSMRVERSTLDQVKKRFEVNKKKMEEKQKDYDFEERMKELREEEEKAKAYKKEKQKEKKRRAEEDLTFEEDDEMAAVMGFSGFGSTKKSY
UniProt Q9C0D3: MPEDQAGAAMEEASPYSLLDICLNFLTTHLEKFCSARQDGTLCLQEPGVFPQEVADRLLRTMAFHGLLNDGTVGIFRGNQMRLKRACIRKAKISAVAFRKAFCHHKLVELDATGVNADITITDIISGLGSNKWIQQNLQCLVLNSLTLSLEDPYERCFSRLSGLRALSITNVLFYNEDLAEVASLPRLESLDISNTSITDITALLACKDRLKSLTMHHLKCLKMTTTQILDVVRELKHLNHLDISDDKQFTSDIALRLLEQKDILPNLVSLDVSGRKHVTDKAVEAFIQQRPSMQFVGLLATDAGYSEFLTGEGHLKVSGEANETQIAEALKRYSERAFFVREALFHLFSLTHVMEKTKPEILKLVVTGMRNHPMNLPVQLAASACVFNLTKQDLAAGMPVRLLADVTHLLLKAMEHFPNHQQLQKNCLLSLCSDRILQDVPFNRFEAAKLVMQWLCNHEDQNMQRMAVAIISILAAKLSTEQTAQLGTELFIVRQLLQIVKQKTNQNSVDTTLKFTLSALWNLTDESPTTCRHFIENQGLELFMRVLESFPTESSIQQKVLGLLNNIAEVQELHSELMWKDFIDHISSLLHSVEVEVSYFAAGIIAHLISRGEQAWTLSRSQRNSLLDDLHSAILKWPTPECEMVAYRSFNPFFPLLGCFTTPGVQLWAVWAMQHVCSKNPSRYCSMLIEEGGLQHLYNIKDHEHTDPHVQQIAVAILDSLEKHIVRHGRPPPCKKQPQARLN
UniProt A6NFI3: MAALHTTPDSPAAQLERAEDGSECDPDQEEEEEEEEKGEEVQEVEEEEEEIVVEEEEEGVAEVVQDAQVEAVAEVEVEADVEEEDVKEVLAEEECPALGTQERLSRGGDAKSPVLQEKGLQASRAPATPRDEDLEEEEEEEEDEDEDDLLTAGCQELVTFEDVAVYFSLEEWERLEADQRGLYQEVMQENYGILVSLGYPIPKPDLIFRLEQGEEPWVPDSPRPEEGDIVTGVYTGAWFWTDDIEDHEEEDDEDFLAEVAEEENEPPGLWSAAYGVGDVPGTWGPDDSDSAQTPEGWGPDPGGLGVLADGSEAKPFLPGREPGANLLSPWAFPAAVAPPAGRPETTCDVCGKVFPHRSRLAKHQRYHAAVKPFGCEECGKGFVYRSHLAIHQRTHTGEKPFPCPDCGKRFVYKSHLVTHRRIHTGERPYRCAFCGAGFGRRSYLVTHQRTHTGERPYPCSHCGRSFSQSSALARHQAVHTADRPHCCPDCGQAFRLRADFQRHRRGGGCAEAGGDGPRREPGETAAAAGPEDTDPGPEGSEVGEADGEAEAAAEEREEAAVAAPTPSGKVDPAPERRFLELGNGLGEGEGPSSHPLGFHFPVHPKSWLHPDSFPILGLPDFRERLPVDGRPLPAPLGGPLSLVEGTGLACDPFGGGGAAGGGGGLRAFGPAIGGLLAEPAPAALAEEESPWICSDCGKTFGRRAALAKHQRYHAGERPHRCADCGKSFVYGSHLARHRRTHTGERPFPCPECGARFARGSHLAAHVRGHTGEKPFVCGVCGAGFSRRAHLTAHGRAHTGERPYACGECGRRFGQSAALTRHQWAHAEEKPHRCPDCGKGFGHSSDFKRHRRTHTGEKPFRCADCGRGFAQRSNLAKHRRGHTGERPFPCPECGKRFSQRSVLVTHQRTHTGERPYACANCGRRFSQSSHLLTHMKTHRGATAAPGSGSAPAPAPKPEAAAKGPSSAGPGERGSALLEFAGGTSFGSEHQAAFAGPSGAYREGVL
UniProt P52739: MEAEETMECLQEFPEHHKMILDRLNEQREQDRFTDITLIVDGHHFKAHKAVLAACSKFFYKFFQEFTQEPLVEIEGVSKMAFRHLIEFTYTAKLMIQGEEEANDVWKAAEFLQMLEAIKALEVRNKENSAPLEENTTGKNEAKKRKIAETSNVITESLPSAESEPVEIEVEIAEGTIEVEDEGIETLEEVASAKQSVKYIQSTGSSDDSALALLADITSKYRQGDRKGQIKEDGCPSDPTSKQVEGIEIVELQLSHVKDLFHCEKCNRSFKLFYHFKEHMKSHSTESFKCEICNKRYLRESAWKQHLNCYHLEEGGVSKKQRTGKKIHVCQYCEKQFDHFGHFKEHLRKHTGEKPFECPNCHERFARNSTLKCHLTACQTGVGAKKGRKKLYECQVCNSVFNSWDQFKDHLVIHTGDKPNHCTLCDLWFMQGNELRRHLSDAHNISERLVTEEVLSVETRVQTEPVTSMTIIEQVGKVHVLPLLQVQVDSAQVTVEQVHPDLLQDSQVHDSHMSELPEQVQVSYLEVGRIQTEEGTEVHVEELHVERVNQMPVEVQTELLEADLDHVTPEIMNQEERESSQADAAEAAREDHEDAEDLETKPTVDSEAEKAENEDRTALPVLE
UniProt Q9NRM2: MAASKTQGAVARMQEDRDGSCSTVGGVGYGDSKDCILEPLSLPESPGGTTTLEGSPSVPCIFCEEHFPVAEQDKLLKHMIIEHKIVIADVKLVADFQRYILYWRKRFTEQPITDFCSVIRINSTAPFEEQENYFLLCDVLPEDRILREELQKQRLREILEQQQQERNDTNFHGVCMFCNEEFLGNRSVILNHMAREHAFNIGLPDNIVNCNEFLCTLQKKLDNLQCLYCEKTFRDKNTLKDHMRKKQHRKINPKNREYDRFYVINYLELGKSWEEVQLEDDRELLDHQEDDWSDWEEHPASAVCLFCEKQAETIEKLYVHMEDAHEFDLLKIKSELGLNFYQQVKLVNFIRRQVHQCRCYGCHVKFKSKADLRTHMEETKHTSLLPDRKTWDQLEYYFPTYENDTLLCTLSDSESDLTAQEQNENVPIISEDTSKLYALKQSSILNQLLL
UniProt Q9UKY1: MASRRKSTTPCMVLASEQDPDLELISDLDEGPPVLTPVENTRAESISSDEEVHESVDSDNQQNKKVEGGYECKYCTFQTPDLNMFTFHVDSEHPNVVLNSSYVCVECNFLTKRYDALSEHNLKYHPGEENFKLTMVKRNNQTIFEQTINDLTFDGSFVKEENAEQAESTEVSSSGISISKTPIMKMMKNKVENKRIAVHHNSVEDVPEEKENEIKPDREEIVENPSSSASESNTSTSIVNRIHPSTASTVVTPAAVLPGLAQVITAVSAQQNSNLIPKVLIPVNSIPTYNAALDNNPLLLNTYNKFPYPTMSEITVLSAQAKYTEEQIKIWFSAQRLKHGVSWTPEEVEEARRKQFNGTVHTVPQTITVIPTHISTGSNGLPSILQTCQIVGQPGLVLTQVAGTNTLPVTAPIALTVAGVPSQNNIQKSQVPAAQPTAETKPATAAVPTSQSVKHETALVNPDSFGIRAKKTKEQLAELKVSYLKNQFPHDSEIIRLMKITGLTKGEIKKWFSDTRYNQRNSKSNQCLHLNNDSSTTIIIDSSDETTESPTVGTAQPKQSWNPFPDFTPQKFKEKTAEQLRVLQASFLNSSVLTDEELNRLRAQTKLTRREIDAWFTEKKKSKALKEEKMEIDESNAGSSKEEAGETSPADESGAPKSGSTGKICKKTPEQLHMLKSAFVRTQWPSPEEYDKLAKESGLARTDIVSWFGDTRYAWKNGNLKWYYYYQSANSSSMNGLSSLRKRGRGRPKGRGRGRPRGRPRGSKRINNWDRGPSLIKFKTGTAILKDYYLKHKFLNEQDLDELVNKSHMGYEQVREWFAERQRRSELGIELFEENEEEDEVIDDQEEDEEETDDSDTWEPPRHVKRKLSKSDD
UniProt O75844: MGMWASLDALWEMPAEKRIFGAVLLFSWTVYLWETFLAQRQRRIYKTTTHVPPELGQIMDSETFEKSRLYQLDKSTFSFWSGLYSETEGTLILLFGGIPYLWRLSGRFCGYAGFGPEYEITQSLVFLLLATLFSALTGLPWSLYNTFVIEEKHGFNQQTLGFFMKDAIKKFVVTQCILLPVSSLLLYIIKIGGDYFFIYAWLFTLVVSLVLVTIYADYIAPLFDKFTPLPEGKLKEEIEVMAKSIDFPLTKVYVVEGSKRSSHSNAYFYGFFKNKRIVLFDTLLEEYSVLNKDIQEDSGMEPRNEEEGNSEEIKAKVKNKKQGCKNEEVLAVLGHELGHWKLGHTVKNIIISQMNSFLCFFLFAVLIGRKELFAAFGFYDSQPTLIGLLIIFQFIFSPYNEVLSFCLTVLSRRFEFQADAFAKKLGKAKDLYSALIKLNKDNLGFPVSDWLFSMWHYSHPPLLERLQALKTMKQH
UniProt Q8NB15: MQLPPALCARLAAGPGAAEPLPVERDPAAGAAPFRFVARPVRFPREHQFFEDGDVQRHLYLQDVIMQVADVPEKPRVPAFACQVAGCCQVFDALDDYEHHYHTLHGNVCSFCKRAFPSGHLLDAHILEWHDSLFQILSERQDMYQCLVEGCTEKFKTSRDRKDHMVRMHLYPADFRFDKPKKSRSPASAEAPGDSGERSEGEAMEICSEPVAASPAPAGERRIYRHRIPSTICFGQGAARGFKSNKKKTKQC
UniProt Q5VZL5: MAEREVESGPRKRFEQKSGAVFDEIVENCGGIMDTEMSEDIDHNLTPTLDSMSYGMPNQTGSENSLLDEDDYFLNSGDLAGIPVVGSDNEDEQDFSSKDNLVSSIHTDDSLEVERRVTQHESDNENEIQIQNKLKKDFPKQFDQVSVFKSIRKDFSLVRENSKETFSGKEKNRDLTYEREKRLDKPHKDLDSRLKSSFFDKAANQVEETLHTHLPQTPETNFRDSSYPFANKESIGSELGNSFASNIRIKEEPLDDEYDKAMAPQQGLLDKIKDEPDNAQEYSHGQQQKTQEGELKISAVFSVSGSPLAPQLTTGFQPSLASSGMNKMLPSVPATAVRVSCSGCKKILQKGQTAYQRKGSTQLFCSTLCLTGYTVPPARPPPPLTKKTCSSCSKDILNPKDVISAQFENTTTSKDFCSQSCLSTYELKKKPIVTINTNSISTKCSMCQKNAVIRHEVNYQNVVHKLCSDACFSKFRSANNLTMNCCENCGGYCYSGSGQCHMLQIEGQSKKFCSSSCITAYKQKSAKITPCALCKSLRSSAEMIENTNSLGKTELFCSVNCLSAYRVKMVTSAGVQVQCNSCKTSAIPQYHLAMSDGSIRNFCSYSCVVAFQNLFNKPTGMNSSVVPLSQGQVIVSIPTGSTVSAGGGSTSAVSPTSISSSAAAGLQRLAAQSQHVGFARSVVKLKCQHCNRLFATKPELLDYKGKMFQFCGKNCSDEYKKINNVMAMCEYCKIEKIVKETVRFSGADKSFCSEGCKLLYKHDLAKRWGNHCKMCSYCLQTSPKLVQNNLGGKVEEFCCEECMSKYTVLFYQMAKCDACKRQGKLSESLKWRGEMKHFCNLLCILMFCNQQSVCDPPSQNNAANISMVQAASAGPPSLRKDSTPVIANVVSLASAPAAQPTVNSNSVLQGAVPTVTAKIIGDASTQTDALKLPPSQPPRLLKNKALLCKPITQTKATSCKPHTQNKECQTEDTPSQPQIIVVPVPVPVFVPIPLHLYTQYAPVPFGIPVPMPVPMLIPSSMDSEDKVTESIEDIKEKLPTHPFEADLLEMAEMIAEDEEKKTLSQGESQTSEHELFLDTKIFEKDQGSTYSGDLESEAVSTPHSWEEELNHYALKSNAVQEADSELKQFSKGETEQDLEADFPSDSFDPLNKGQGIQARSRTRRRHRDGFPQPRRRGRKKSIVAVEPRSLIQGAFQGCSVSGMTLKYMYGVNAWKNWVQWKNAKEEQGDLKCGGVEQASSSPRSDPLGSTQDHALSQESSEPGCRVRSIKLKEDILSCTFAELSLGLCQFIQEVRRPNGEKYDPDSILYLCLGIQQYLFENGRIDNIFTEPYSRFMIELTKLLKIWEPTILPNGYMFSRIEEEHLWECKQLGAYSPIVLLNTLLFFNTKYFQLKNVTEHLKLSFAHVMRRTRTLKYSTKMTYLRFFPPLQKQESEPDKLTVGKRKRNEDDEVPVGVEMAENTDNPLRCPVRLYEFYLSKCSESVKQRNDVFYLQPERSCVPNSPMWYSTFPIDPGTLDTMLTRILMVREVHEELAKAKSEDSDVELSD

Experiments:
Test in all cases: log2 fold change, soluble protein after heating vs DMSO (PISA); higher = thermal stabilisation; K562 lysate, 10 uM; active = over 0.2 and 3.5 SD of the protein, either way, in both replicates (recomputed)
vemurafenib = compound: CCCS(=O)(=O)Nc1ccc(F)c(C(=O)c2c[nH]c3ncc(-c4ccc(Cl)cc4)cc23)c1F [vemurafenib]
Outline: (§1)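 Quantification was by TMTpro 16plex LC-MS/MS with equalised channel sums, applied to the supernatant after 21,000xg for 90 min. Samples were crude K562 extract at 1 mg/mL protein in PBS pH 7.4 with 1 mM MgCl2, treated with 10 μM compound for 30 min, heated for 3 min across 48°C-58°C, pooled and brought to 0.5% NP-40 at 4°C. Values are log-two fold changes in thermal stability relative to solvent controls, from duplicates.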

[1] = compound: CCCS(=O)(=O)Nc1ccc(F)c(C(=O)c2c[nH]c3ncc(Cl)cc23)c1F
Outline: as §1

barasertib = compound: CCN(CCCOc1ccc2c(Nc3cc(CC(=O)Nc4cccc(F)c4)[nH]n3)ncnc2c1)CCOP(=O)(O)O [barasertib]
Outline: as §1

[2] = compound: CC[C@@H]1C(=O)N(C)c2cnc(Nc3ccc(C(=O)NC4CCN(C)CC4)cc3OC)nc2N1C1CCCC1
Outline: as §1

volasertib = compound: CC[C@@H]1C(=O)N(C)c2cnc(Nc3ccc(C(=O)N[C@H]4CC[C@H](N5CCN(CC6CC6)CC5)CC4)cc3OC)nc2N1C(C)C [volasertib]
Outline: as §1

[3] = compound: CCn1c(C(=O)N(C2CC2)C2CC2)cc2c3c(ncn3C)c(Nc3cc(C)n(C)n3)nc21
Outline: as §1

[4] = compound: CCn1cc(-c2ccnc3[nH]c(-c4cccc(CN(C)C)c4)cc23)c(-c2ccc(NC(=O)N(C)C)cc2)n1
Outline: as §1

[5] = compound: CN1CCC(CNc2ccc3ncc(-c4cccc(OC(F)(F)F)c4)n3n2)CC1
Outline: as §1

saracatinib = compound: CN1CCN(CCOc2cc(OC3CCOCC3)c3c(Nc4c(Cl)ccc5c4OCO5)ncnc3c2)CC1 [saracatinib]
Outline: as §1

sotrastaurin = compound: CN1CCN(c2nc(C3=C(c4c[nH]c5ccccc45)C(=O)NC3=O)c3ccccc3n2)CC1 [sotrastaurin]
Outline: as §1

alvocidib = compound: CN1CC[C@H](c2c(O)cc(O)c3c(=O)cc(-c4ccccc4Cl)oc23)[C@H](O)C1 [alvocidib]
Outline: as §1

Tubastatin A = compound: CN1CCc2c(c3ccccc3n2Cc2ccc(C(=O)NO)cc2)C1 [Tubastatin A]
Outline: as §1

[6] = compound: CNC(=O)C1=CC=CC=C1NC2=NC(=NC=C2Cl)NC3=C(C=C(C=C3)N4CCOCC4)OC
Outline: as §1

defactinib = compound: CNC(=O)c1ccc(Nc2ncc(C(F)(F)F)c(NCc3nccnc3N(C)S(C)(=O)=O)n2)cc1 [defactinib]
Outline: as §1

[7] = compound: CNc1nc(-c2ccc3c(N)n[nH]c3c2)cc(N2C[C@@H](C(=O)NC3CCCCC3)CC[C@H]2C)n1
Outline: as §1

encorafenib = compound: COC(=O)N[C@@H](C)CNc1nccc(-c2cn(C(C)C)nc2-c2cc(Cl)cc(NS(C)(=O)=O)c2F)n1 [encorafenib]
Outline: as §1

[8] = compound: COC(=O)[C@H](CCSC)NC(=O)C1=C(C=C(C=C1)NC[C@H](CS)N)C2=CC=CC=C2
Outline: as §1

alisertib = compound: COc1cc(Nc2ncc3c(n2)-c2ccc(Cl)cc2C(c2c(F)cccc2OC)=NC3)ccc1C(=O)O [alisertib]
Outline: as §1

[9] = compound: COc1cc2nc(-c3cc(F)ccc3O)nc(N[C@@H]3CNC[C@H]3C(C)(C)O)c2cc1OC
Outline: as §1

gefitinib = compound: COc1cc2ncnc(Nc3ccc(F)c(Cl)c3)c2cc1OCCCN1CCOCC1 [gefitinib]
Outline: as §1

Measured: log2 fold change

ZNF706 (UniProt Q9Y5V0)
inactive: vemurafenib -0.002 | [1] -0.013 | barasertib -0.03 | [2] 0.075 | volasertib 0.034 | [3] 0.031 | [4] -0.026 | [5] 0.061 | saracatinib 0.06 | sotrastaurin -0.037 | alvocidib -0.02 | Tubastatin A 0.107 | [6] -0.009 | defactinib -0.039 | [7] 0.07 | encorafenib -0.119 | [8] -0.064 | alisertib -0.008 | [9] -0.005 | gefitinib -0.016

ZNF618 (UniProt Q5T7W0)
inactive: vemurafenib -0.026 | [1] -0.004 | barasertib 0.021 | [2] 0.043 | volasertib -0.032 | [3] -0.073 | [4] -0.004 | [5] 0.089 | saracatinib 0.057 | sotrastaurin -0.019 | alvocidib -0.041 | Tubastatin A 0.008 | [6] 0.034 | defactinib 0.004 | [7] 0.042 | encorafenib 0.002 | [8] -0.052 | alisertib -0.024 | [9] -0.04 | gefitinib -0.048

ZMAT2 (UniProt Q96NC0)
inactive: vemurafenib -0.015 | [1] 0 | barasertib -0.041 | [2] 0.062 | volasertib 0.039 | [3] -0.026 | [4] -0.034 | [5] 0.087 | saracatinib 0.017 | sotrastaurin -0.036 | alvocidib -0.001 | Tubastatin A 0.053 | [6] -0.012 | defactinib -0.001 | [7] -0.037 | encorafenib -0.035 | [8] -0.014 | alisertib 0.009 | [9] 0.001 | gefitinib 0.013

ZYG11B (UniProt Q9C0D3)
inactive: vemurafenib 0.005 | [1] 0 | barasertib 0.019 | [2] 0.022 | volasertib -0.032 | [3] -0.003 | [4] -0.088 | [5] 0.062 | saracatinib 0.023 | sotrastaurin -0.01 | alvocidib -0.008 | Tubastatin A 0.025 | [6] 0.023 | defactinib 0.016 | [7] -0.009 | encorafenib 0.001 | [8] -0.037 | alisertib 0.011 | [9] 0.017 | gefitinib 0.019

ZWILCH (UniProt Q9H900)
inactive: vemurafenib -0.011 | [1] -0.005 | barasertib -0.029 | [2] -0.031 | volasertib -0.044 | [3] 0.049 | [4] -0.063 | [5] -0.007 | saracatinib 0.01 | sotrastaurin 0.039 | alvocidib 0.002 | Tubastatin A -0.016 | [6] 0.039 | defactinib 0.025 | [7] -0.049 | encorafenib 0.011 | [8] -0.007 | alisertib 0.013 | [9] 0.007 | gefitinib -0.042

ZNF512 (UniProt Q96ME7)
inactive: vemurafenib -0.097 | [1] 0.008 | barasertib 0.081 | [2] -0.086 | volasertib -0.054 | [3] 0.013 | [4] -0.107 | [5] -0.056 | saracatinib 0.069 | sotrastaurin 0.009 | alvocidib 0.042 | Tubastatin A -0.142 | [6] -0.005 | defactinib 0.012 | [7] 0.03 | encorafenib 0.046 | [8] 0.051 | alisertib -0.009 | [9] 0.017 | gefitinib -0.015

ZNF638 (UniProt Q14966)
inactive: vemurafenib -0.006 | [1] 0.011 | barasertib -0.032 | [2] 0.015 | volasertib 0.011 | [3] -0.055 | [4] 0.031 | [5] -0.036 | saracatinib 0.032 | sotrastaurin 0.004 | alvocidib 0 | Tubastatin A 0.008 | [6] 0.018 | defactinib -0.006 | [7] 0.03 | encorafenib 0.028 | [8] 0.099 | alisertib 0.002 | [9] 0.019 | gefitinib -0.01

ZMYND8 isoform 19 (UniProt Q9ULU4)
inactive: vemurafenib 0.061 | [1] 0.071 | barasertib 0.012 | [2] 0.016 | volasertib -0.025 | [3] -0.015 | [4] -0.127 | [5] 0.037 | saracatinib -0.01 | sotrastaurin 0.019 | alvocidib 0 | Tubastatin A -0.091 | [6] 0.017 | defactinib 0.104 | [7] -0.052 | encorafenib -0.002 | [8] 0.065 | alisertib 0.022 | [9] -0.046 | gefitinib -0.023

ZNF622 (UniProt Q969S3)
inactive: vemurafenib 0.018 | [1] 0.01 | barasertib 0.026 | [2] 0.028 | volasertib -0.031 | [3] -0.003 | [4] -0.102 | [5] 0.003 | saracatinib 0.008 | sotrastaurin -0.02 | alvocidib 0.043 | Tubastatin A 0.028 | [6] 0.009 | defactinib -0.015 | [7] -0.033 | encorafenib 0.004 | [8] -0.003 | alisertib -0.017 | [9] -0.009 | gefitinib -0.011

ZNF316 (UniProt A6NFI3)
inactive: vemurafenib -0.098 | [1] -0.093 | barasertib -0.03 | [2] -0.068 | volasertib 0.099 | [3] -0.058 | [4] -0.301 | [5] 0.08 | saracatinib 0.035 | sotrastaurin -0.039 | alvocidib -0.132 | Tubastatin A -0.036 | [6] -0.02 | defactinib -0.027 | [7] -0.077 | encorafenib 0.014 | [8] -0.001 | alisertib -0.005 | [9] -0.08 | gefitinib -0.083

ZNF131 (UniProt P52739)
inactive: vemurafenib -0.037 | [1] -0.014 | barasertib -0.047 | [2] 0.015 | volasertib -0.113 | [3] -0.034 | [4] -0.044 | [5] 0.054 | saracatinib 0.02 | sotrastaurin 0.03 | alvocidib 0.004 | Tubastatin A 0.004 | [6] -0.008 | defactinib -0.004 | [7] 0.009 | encorafenib 0.054 | [8] 0.002 | alisertib 0.059 | [9] 0.02 | gefitinib -0.034

ZNF277 (UniProt Q9NRM2)
inactive: vemurafenib -0.014 | [1] -0.041 | barasertib 0.064 | [2] -0.136 | volasertib -0.02 | [3] -0.007 | [4] 0.007 | [5] 0.05 | saracatinib 0.029 | sotrastaurin 0.003 | alvocidib -0.04 | Tubastatin A -0.099 | [6] -0.002 | defactinib 0.014 | [7] -0.02 | encorafenib 0.053 | [8] 0.136 | alisertib 0.036 | [9] 0.005 | gefitinib -0.035

Retrieved one by one from the list above (2):
ZMYND8 isoform 19 (UniProt Q9ULU4)
inactive: vemurafenib 0.061 | [1] 0.071 | barasertib 0.012 | [2] 0.016 | volasertib -0.025 | [3] -0.015 | [4] -0.127 | [5] 0.037 | saracatinib -0.01 | sotrastaurin 0.019 | alvocidib 0 | Tubastatin A -0.091 | [6] 0.017 | defactinib 0.104 | [7] -0.052 | encorafenib -0.002 | [8] 0.065 | alisertib 0.022 | [9] -0.046 | gefitinib -0.023

ZNF131 (UniProt P52739)
inactive: vemurafenib -0.037 | [1] -0.014 | barasertib -0.047 | [2] 0.015 | volasertib -0.113 | [3] -0.034 | [4] -0.044 | [5] 0.054 | saracatinib 0.02 | sotrastaurin 0.03 | alvocidib 0.004 | Tubastatin A 0.004 | [6] -0.008 | defactinib -0.004 | [7] 0.009 | encorafenib 0.054 | [8] 0.002 | alisertib 0.059 | [9] 0.02 | gefitinib -0.034

(listing goes on)

ZHX1 (UniProt Q9UKY1)
inactive: vemurafenib -0.058 | [1] 0.057 | barasertib 0.059 | [2] 0.144 | volasertib -0.079 | [3] -0.056 | saracatinib 0.011 | sotrastaurin 0.029 | alvocidib -0.231 | Tubastatin A -0.194 | [6] 0 | defactinib 0.034 | [7] 0.251 | encorafenib 0.041 | [8] 0.044 | alisertib 0.013 | [9] 0.042 | gefitinib 0.012
active: [4] -0.603 | [5] 0.526

ZMPSTE24 (UniProt O75844)
inactive: vemurafenib 0.047 | [1] -0.011 | barasertib -0.014 | [2] 0.041 | volasertib 0.066 | [3] -0.013 | [4] -0.22 | [5] 0.171 | saracatinib 0.024 | sotrastaurin 0.047 | alvocidib -0.056 | Tubastatin A 0.034 | [6] 0.038 | defactinib 0 | [7] 0.022 | encorafenib 0.01 | [8] -0.031 | alisertib -0.022 | [9] 0.012 | gefitinib 0.007

ZNF511 (UniProt Q8NB15)
inactive: vemurafenib -0.059 | [1] -0.235 | barasertib 0.012 | [2] 0.04 | volasertib 0.052 | [3] 0.056 | [4] -0.58 | [5] 0.059 | saracatinib 0.024 | sotrastaurin -0.068 | alvocidib 0.026 | Tubastatin A -0.03 | [6] 0.157 | defactinib 0.008 | [7] 0.033 | encorafenib 0.01 | [8] -0.052 | alisertib -0.003 | [9] -0.014 | gefitinib -0.055

ZMYM4 (UniProt Q5VZL5)
inactive: vemurafenib 0.008 | [1] 0.003 | barasertib 0.126 | [2] 0.013 | volasertib 0.041 | [3] 0.033 | [4] 0.013 | [5] 0.029 | saracatinib 0.023 | sotrastaurin 0.043 | alvocidib -0.071 | Tubastatin A -0.089 | [6] -0.015 | defactinib 0.096 | [7] 0.188 | encorafenib 0.063 | [8] 0.016 | alisertib -0.004 | [9] 0.004 | gefitinib 0.047
